Data as given in PubChem BioAssay AID1259327 (Drosophila RNAi Screening Center, 2017).
Assay: 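Data from controls in screens of zinc and manganese toxicity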. Cell system: Drosophila S2R+ cells. Reagents: long dsRNA against Drosophila genes. Time to read-out: 5 days (water added on day 4, read one day later). Challenge: water added as vehicle, no metal, one day before read-out. Detection: 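Total ATP measured by luciferase light, scaled to plate mean, duplicates averaged, then z-scored across plates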. Scale: ATP z-score: higher = more total ATP than typical wells; ATP luminescence: higher = more total ATP. Rule for the call: 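a hit is any knock-down whose absolute ATP z-score is greater than 1.5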. Meaning of the calls: active = hit: ATP up or down; inactive = no clear ATP change.
Shown is one part, drawn at random, of about 3,100 reagents tested. 378 of them (12%) count as active. 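Hits include both directions; z-score sign shows ATP rise or fall; raw luminescence values are not plate-normalised.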 Entries without a mark were called inactive. The numbers tell different reagents against one gene apart. Not stated in the record: the amount of reagent.

no.	Target gene	reagent no.	ATP z-score, duplicate mean	ATP luminescence, replicate 1 (RLU)	ATP luminescence, replicate 2 (RLU)
1	Hmgcr	1	2.29 (active)	4.27e5	9.46e5
2	Nha2	1	-1.01	2.72e5	6.05e5
3	Nha2	2	-1.01	6.22e5	6.44e5
4	Tsp29Fb	1	-0.128	7.68e5	6.58e5
5	Tsp29Fb	2	0.45	9.40e5	8.72e5
6	GABPI	1	1.41	5.25e5	6.35e5
7	GABPI	2	1.06	1.06e6	1.03e6
8	CG14743	1	0.747	6.27e5	7.48e5
9	CG14743	2	-2.06 (active)	3.35e5	3.14e5
10	Lgr3	1	-0.273	6.20e5	8.12e5
11	Lgr3	2	2.95 (active)	3.59e5	1.27e6
12	CG3216	1	-0.214	7.13e5	6.94e5
13	CG3216	2	0.288	8.80e5	8.37e5
14	CCKLR-17D1	1	-0.659	6.10e5	7.36e5
15	CCKLR-17D1	2	1.53 (active)	1.09e6	7.13e5
16	CCKLR-17D1	3	-0.698	9.54e5	1.05e6
17	ACXE	1	0.499	7.74e5	7.84e5

The list goes on (3 carried over from the part before).
no.	Target gene	reagent no.	ATP z-score, duplicate mean	ATP luminescence, replicate 1 (RLU)	ATP luminescence, replicate 2 (RLU)
15	CCKLR-17D1	2	1.53 (active)	1.09e6	7.13e5
16	CCKLR-17D1	3	-0.698	9.54e5	1.05e6
17	ACXE	1	0.499	7.74e5	7.84e5
18	CG16781	1	0.697	7.74e5	8.39e5
19	CG16781	2	2.33 (active)	9.82e5	1.11e6
20	CG8008	1	-0.0286	6.95e5	7.62e5
21	CG8008	2	-0.683	4.48e5	3.69e5
22	tinc	1	-0.215	7.39e5	6.98e5
23	tinc	2	0.123	3.44e5	6.76e5
24	Hmt-1	1	-0.163	6.98e5	6.80e5
25	Hmt-1	2	0.563	5.04e5	5.03e5
26	GABA-B-R3	1	-0.586	6.27e5	6.63e5
27	GABA-B-R3	2	0.177	8.59e5	8.31e5
28	fz	1	-0.46	7.99e5	8.70e5
29	fz	2	-0.782	5.18e5	5.09e5
30	Mdr50	1	-1.86 (active)	4.33e5	4.68e5
31	Mdr50	2	0.932	9.70e5	9.62e5
32	CG31121	1	0.631	7.75e5	8.49e5
33	CG31121	2	-1.1	2.37e5	6.75e5
34	Gr47b	1	-0.263	6.39e5	7.93e5
35	Gr47b	2	0.556	4.91e5	5.16e5
36	lz	1	-0.965	7.54e5	7.06e5
37	lz	2	-0.587	4.92e5	5.68e5
38	CG1161	1	-0.57	7.71e5	7.88e5
39	kkv	1	0.03	7.07e5	7.62e5
40	CG8034	1	-1.14	4.58e5	5.07e5
41	Or59a	1	-0.309	6.54e5	7.32e5
42	Or59a	2	1.44	5.56e5	6.05e5
43	CG11099	1	1.85 (active)	7.75e5	8.00e5
44	140up	1	-0.561	6.71e5	6.25e5
45	140up	2	-0.136	8.43e5	7.73e5
46	snu	1	-1.35	5.71e5	5.62e5
47	snu	2	1.78 (active)	5.95e5	5.77e5
